Measured values: US20050005314A1
No constants are given. Whether binding was seen depends on the method and setting. For part of these data: Binding seen in cells or lysates may run through a third protein. Some entries that bind do so weakly or less than the wild type.

Amino acid sequences for entries named in this document (tags omitted). A change or cut given only in a name is not applied to a line headed by its entry.
UniProt P06748: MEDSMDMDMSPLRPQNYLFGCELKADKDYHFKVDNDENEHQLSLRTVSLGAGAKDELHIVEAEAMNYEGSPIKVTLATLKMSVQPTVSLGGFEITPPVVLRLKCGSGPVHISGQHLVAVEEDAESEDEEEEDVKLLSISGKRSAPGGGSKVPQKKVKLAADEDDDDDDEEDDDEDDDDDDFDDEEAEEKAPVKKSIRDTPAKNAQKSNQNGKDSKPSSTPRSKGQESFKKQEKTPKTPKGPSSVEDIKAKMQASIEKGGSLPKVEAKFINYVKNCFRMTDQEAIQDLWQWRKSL
UniProt Q9UM73: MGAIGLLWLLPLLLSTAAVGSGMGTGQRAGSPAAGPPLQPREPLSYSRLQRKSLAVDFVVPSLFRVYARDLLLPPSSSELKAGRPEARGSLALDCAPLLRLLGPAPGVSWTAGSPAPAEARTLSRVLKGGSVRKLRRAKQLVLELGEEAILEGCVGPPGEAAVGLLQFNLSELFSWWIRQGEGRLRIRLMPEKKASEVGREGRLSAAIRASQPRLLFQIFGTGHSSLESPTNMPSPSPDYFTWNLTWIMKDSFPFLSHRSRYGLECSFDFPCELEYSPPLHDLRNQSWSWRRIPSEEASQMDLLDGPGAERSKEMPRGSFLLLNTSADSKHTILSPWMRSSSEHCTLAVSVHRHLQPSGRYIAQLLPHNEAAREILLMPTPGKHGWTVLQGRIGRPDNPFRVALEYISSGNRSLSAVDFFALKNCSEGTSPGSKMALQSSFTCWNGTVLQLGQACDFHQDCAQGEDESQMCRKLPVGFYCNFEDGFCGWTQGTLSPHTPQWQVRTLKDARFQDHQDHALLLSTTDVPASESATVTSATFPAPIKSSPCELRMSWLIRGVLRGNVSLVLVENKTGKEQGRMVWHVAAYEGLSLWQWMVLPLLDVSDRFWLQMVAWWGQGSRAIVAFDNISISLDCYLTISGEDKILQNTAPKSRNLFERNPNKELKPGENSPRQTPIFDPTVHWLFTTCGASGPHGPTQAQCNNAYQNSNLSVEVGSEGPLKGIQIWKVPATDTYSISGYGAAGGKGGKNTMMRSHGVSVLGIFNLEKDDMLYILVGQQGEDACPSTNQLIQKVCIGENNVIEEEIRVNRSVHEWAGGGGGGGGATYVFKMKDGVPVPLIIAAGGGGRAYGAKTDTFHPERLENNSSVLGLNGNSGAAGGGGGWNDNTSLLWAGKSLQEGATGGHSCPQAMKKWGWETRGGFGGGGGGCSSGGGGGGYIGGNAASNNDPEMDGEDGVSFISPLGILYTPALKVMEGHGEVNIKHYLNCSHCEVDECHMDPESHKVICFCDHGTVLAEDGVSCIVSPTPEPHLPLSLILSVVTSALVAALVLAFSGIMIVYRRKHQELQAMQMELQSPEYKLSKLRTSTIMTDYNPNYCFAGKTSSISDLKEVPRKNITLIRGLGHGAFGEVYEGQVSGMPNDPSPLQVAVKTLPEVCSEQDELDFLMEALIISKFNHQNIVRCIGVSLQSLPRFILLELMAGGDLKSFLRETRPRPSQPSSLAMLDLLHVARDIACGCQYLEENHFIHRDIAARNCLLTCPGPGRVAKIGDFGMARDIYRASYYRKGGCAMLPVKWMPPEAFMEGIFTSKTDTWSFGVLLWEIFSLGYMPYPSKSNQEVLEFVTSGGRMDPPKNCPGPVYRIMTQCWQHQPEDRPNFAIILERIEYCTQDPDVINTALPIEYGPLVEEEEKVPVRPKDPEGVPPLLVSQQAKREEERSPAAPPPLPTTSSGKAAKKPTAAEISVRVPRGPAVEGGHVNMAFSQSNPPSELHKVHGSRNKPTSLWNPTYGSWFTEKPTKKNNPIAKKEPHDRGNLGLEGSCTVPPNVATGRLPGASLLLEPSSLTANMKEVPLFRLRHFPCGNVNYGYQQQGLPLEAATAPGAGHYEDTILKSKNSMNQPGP
UniProt Q60631: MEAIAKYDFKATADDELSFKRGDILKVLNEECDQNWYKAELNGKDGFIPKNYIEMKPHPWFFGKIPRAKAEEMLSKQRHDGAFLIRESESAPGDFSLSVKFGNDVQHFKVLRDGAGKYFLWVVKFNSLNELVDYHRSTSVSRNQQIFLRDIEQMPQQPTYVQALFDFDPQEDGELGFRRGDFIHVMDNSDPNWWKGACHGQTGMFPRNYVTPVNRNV
UniProt P35569: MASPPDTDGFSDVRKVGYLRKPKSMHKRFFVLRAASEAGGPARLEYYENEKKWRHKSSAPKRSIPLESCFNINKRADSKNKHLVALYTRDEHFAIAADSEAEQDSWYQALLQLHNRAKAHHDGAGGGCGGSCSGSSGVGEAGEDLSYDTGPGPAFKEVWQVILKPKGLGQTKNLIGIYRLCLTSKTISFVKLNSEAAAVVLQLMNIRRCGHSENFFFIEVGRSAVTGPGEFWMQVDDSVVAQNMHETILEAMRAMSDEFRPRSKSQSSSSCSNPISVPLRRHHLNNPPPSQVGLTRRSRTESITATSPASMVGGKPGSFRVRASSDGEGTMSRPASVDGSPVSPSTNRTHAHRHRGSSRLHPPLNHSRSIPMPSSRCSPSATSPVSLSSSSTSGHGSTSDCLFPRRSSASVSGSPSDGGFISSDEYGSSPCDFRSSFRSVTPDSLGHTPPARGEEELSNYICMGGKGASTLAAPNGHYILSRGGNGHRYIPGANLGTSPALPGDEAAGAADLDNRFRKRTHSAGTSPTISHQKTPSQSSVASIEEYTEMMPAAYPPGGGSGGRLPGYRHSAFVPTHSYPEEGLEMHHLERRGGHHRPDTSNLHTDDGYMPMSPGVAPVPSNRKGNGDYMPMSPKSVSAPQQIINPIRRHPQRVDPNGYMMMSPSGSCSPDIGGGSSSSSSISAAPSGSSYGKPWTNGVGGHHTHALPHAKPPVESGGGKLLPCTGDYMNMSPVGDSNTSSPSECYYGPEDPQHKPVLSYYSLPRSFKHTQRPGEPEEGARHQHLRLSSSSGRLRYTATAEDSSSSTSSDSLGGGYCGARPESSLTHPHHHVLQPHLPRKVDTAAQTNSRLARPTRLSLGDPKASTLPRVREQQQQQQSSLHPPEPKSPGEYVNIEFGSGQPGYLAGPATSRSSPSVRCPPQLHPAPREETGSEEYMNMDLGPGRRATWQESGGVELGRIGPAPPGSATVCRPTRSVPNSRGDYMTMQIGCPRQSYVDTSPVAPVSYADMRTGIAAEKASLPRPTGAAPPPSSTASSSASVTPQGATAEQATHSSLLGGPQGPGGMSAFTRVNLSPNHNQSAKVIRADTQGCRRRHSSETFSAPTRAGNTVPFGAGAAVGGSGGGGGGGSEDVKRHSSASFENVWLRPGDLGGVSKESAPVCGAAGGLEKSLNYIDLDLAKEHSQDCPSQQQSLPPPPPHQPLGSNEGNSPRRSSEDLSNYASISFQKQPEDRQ

How the values were obtained:
[1] = target: T1, NPM-ALK fusion protein (human NPM-ALK chimera expressed from the full-length cDNA in transgenic mouse T cells) (human) (UniProt P06748+Q9UM73); assay: co-immunoprecipitation (summary of Example 1)
[2] = target: T1, NPM-ALK fusion protein (human NPM-ALK chimera expressed from the full-length cDNA in transgenic mouse T cells) (human); assay: immunoprecipitation with anti-ALK or anti-Grb-2, Western blot
[3] = target: T1, NPM-ALK fusion protein (human NPM-ALK chimera expressed from the full-length cDNA in transgenic mouse T cells) (human); assay: co-immunoprecipitation and Western blot, lysates of transgenic mouse cells
[4] = target: T1, NPM-ALK fusion protein (human NPM-ALK chimera expressed from the full-length cDNA in transgenic mouse T cells) (human); assay: immunoprecipitation with anti-ALK, Western blot

Measured: binding

mouse Grb-2 (from UniProt Q60631 1-217)
binds: [1] | [2] | [3]

mouse IRS-1 (from UniProt P35569 1-1233)
binds: [1] | [4] | [3]

B1: mouse Shc (protein, UniProt P98083 1-579, looked up)
chain: MDLLPPKPKYNPLRNESLSSLEEGASGSTPPEELPSPSASSLGPILPPLPGDDSPTTLCSFFPRMSNLKLANPAGGRLGPKGEPGKAAEDGEGSAGAALRDSGLLPLLQDMNKLSGGGGRRTRVEGGQLGGEEWTRHGSFVNKPTRGWLHPNDKVMGPGVSYLVRYMGCVEVLQSMRALDFNTRTQVTREAISLVCEAVPGAKGATRRRKPCSRPLSSILGRSNLKFAGMPITLTVSTSSLNLMAADCKQIIANHHMQSISFASGGDPDTAEYVAYVAKDPVNQRACHILECPEGLAQDVISTIGQAFELRFKQYLRNPPKLVTPHDRMAGFDGSAWDEEEEEPPDHQYYNDFPGKEPPLGGVVDMRLREGAARPTLPSAQMSSHLGATLPIGQHAAGDHEVRKQMLPPPPCPGRELFDDPSYVNIQNLDKARQAGGGAGPPNPSLNGSAPRDLFDMKPFEDALRVPPPPQSMSMAEQLQGEPWFHGKLSRREAEALLQLNGDFLVRESTTTPGQYVLTGLQSGQPKHLLLVDPEGVVRTKDHRFESVSHLISYHMDNHLPIISAGSELCLQQPVDRKV
binds: [1] | [4] | [3]
